PubChem BioAssay AID504786 | Drosophila RNAi Screening Center – 2011

- Purpose: 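Fly genes required for HIF-dependent transcription when hypoxia is mimicked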 (primary screen)
- Cells: Drosophila S2 cells with a stable HIF luciferase reporter
- Knock-down reagent: long dsRNA against Drosophila genes, about 0.2 µg dsRNA per well of a 384-well plate
- Duration: three days of knock-down, then 20 h of DFO before reading
- Conditions: desferrioxamine (DFO) at 100 µM, an iron chelator that mimics hypoxia, for 20 h
- Read-out: 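HIF reporter luminescence in cells given 100 µM DFO for 20 h, using the mouse ldh-a hypoxia-response element, scored as per-plate z-scores; higher means greater loss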
- Scale: z-score: higher = stronger loss of HIF reporter signal
In all, the deposit lists about 21,000 reagents; below is a random part of those with a known target gene and a result. 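Primary screen; positive scores mean lost reporter signal, so the sign may be inverted from the usual convention.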 The numbers tell different reagents against one gene apart. Names joined by + are all predicted targets of the reagent. No sequences are given here.

| gene | dsRNA no. | z-score, replicate 1 | z-score, replicate 2 | z-score, replicate 3 | z-score, replicate 4 |
| --- | --- | --- | --- | --- | --- |
| CG11085 | 1 | -0.2 | 1.5 | – | – |
| CG15333 | 1 | -0.3 | -0.8 | – | – |
| CG15333 | 2 | -0.4 | -0.8 | – | – |
| GluRIIE (Glutamate receptor IIE) | 1 | -0.6 | 0 | – | – |
| CG12384 | 1 | -0.2 | -0.5 | – | – |
| CG33752 | 1 | 0 | 0.3 | – | – |
| ND-SGDH (NADH dehydrogenase (ubiquinone) SGDH subunit) | 1 | -0.1 | -0.3 | – | – |
| Mur2B (Mucin related 2B) | 1 | -0.3 | -0.1 | – | – |
| Mur2B (Mucin related 2B) | 2 | 0.6 | -0.1 | – | – |
| m-cup (mann-cup) | 1 | -0.1 | -0.5 | – | – |
| caup (caupolican) | 1 | 0.8 | -0.2 | – | – |
| CG32202 | 1 | -0.4 | -0.8 | – | – |
| Syp (Syncrip) | 1 | -0.4 | 0 | – | – |
| Syp (Syncrip) | 2 | -0.3 | -0.4 | – | – |
| ND6 (retired record) | 1 | 0 | -0.3 | -0.5 | -0.4 |
| CG3062 | 1 | -0.3 | -0.3 | – | – |
| sad (shadow) | 1 | -0.4 | -1 | – | – |
| robo1 (roundabout 1) | 1 | -0.3 | -0.3 | – | – |
| Topors (Topoisomerase I-interacting protein) | 1 | -0.1 | 0 | – | – |
| mal (maroon-like) | 1 | -0.2 | -0.4 | – | – |
| CG6885 | 1 | -0.3 | -0.1 | – | – |
| Nepl14 (Neprilysin-like 14) | 1 | 0 | -0.7 | – | – |
| CG8545 | 1 | 0 | 0.3 | – | – |
| kmr (kramer) | 1 | -0.4 | -0.4 | – | – |
| kmr (kramer) | 2 | -0.3 | -0.8 | – | – |
| kmr (kramer) | 3 | 0 | -0.4 | – | – |
| kmr (kramer) | 4 | -0.1 | 0.3 | – | – |
| CG11112 | 1 | -0.2 | -0.3 | – | – |
| CG7453 | 1 | 0.1 | -0.1 | – | – |
| Rep (Rab escort protein) | 1 | 0.2 | 0.1 | – | – |
| CG31798 | 1 | -0.2 | -0.1 | – | – |
| CG33155 + mRpL53 | 1 | 1 | 1.7 | – | – |
| CG17883 | 1 | -0.4 | -0.3 | – | – |
| hwt (heavyweight) | 1 | -0.9 | -0.3 | – | – |
| EAChm (Enhancer of Acetyltransferase Chameau) | 1 | -0.2 | -0.4 | – | – |
| CG6688 | 1 | -0.3 | -0.5 | – | – |

The list goes on (5 carried over from the part before).
| gene | dsRNA no. | z-score, replicate 1 | z-score, replicate 2 | z-score, replicate 3 | z-score, replicate 4 |
| --- | --- | --- | --- | --- | --- |
| CG33155 + mRpL53 | 1 | 1 | 1.7 | – | – |
| CG17883 | 1 | -0.4 | -0.3 | – | – |
| hwt (heavyweight) | 1 | -0.9 | -0.3 | – | – |
| EAChm (Enhancer of Acetyltransferase Chameau) | 1 | -0.2 | -0.4 | – | – |
| CG6688 | 1 | -0.3 | -0.5 | – | – |
| CG15233 | 1 | -0.2 | 0.1 | – | – |
| CG4554 | 1 | 0 | 1.1 | – | – |
| Erk7 (Extracellularly regulated kinase 7) | 1 | -0.4 | -0.5 | – | – |
| Erk7 (Extracellularly regulated kinase 7) | 2 | -0.2 | 0.1 | – | – |
| CG10702 | 1 | -0.3 | -0.2 | – | – |
| Ktl (Kctd12-like) | 1 | 0 | -0.3 | – | – |
| CG11406 | 1 | -0.2 | -0.2 | – | – |
| CG11406 | 2 | -0.3 | 0 | – | – |
| nonA-l (nonA-like) | 1 | -0.5 | -0.4 | – | – |
| CG33521 | 1 | 0.2 | -0.2 | – | – |
| CG33521 | 2 | -0.3 | -0.3 | – | – |
| CG31288 | 1 | -0.4 | -0.5 | – | – |
| Lgr1 (Leucine-rich repeat-containing G protein-coupled receptor 1) | 1 | -0.5 | 0.1 | – | – |
| CG10628 | 1 | 0.1 | 0.5 | – | – |
| rk (rickets) | 1 | -0.3 | -0.1 | – | – |
| Pex3 (Peroxin 3) | 1 | -0.4 | -0.5 | – | – |
| Idi (Isopentenyl-diphosphate delta isomerase) | 1 | -0.2 | -0.2 | – | – |
| tow (target of wingless) | 1 | 1.2 | 2.2 | – | – |
| CG34022 (retired record) | 1 | 0.2 | 0 | – | – |
| CG3045 | 1 | -0.4 | -0.3 | – | – |
| CG1513 | 1 | -0.3 | -0.3 | – | – |
| CG1513 | 2 | -0.5 | -0.4 | – | – |
| CG1513 | 3 | -0.3 | -0.4 | – | – |
| Neu2 (Neuroectoderm-expressed 2) | 1 | -0.3 | -0.3 | – | – |
| CG4751 | 1 | -0.2 | -0.4 | – | – |
| EMC7 (ER membrane protein complex subunit 7) | 1 | -0.3 | -0.6 | – | – |
| Ggamma30A (G protein gamma subunit 30A) | 1 | -0.3 | -0.4 | – | – |
| Ggamma30A (G protein gamma subunit 30A) | 2 | -0.2 | -0.1 | – | – |
| esn (espinas) | 1 | 1 | 1.1 | – | – |
| esn (espinas) | 2 | -0.2 | -0.6 | – | – |
| Pka-C1 (Protein kinase, cAMP-dependent, catalytic subunit 1) | 1 | -0.3 | -0.4 | – | – |
| IntS4 (Integrator 4) | 1 | 0.6 | 0.7 | – | – |
| CG12567 | 1 | -0.2 | -0.1 | – | – |
| CG15930 | 1 | -0.3 | 0 | – | – |
| smog | 1 | -0.4 | -0.4 | – | – |
| smog | 2 | 0.1 | -0.5 | – | – |
| TAF1B | 1 | -0.4 | -0.3 | – | – |
| eEF1alpha2 (eukaryotic translation elongation factor 1 alpha 2) | 1 | -0.2 | 0.1 | – | – |
| eEF1alpha2 (eukaryotic translation elongation factor 1 alpha 2) | 2 | 1.9 | 2.9 | – | – |
| CG9449 | 1 | -0.3 | -0.2 | – | – |
| Acp53C14a (Accessory gland protein 53C14a) | 1 | -0.2 | -0.4 | – | – |
| Ufd4 (Ubiquitin fusion-degradation 4-like) | 1 | 0.8 | 0.5 | – | – |
| CG33969 + fbl | 1 | -0.2 | -0.3 | – | – |
| CG4991 | 1 | -0.3 | -0.9 | – | – |
| Alp12 (Alkaline phosphatase 12) | 1 | -0.4 | -0.5 | – | – |
| twin | 1 | -0.2 | -0.4 | – | – |
| twin | 2 | -0.4 | -0.6 | – | – |
